Data published in publication PMC4433056.
No constants are given. Whether binding was seen depends on the method and setting. Binding seen in cells or lysates may run through a third protein. Some binding calls cover weakened binding; strength is not graded here. For some of these results: Tags and fused reporters may be left off the sequences shown.

T1: EGFP-Bacurd2 fusion protein (murine) (UniProt O70479)
T1 sequence: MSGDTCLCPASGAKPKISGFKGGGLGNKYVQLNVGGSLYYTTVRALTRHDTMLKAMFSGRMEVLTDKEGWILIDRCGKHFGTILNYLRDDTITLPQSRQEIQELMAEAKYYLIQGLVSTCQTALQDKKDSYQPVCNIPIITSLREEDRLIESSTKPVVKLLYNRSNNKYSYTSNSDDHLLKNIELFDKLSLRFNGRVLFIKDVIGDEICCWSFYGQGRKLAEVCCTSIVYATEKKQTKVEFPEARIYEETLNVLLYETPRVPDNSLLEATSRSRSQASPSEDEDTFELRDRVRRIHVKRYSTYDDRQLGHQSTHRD

T2: Bacurd2(Δ1-109), N-terminal truncation mutant (murine) (UniProt O70479)
T2 sequence: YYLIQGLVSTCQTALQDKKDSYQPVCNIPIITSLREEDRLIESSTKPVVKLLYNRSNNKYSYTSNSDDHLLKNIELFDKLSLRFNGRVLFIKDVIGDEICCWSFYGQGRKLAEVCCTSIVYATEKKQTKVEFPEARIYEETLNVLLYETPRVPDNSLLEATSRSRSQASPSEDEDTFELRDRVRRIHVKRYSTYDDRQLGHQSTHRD

T3: Bacurd2(Δ221-316), C-terminal truncation mutant (murine)
T3 sequence: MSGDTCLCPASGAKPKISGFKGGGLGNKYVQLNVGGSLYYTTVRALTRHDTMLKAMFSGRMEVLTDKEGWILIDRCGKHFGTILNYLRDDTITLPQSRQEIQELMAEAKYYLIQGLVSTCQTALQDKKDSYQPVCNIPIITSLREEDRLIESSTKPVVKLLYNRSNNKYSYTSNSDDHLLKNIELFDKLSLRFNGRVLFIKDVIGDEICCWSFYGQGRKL

T4: Bacurd2, endogenous in embryonic (E14.5) mouse brain (mouse (endogenous in E14.5 brain)) (UniProt O70479)
T4 sequence: T1 sequence

B1: FLAG-tagged Rnd2 (protein, UniProt Q9QYM5 1-227)
chain: MEGQSGRCKIVVVGDAECGKTALLQVFAKDAYPGSYVPTVFENYTASFEIDKRRIELNMWDTSGSSYYDNVRPLAYPDSDAVLICFDISRPETLDSVLKKWQGETQEFCPNAKVVLVGCKLDMRTDLATLRELSKQRLIPVTHEQGTVLAKQVGAVSYVECSSRSSERSVRDVFHVATVASLGRGHRQLRRTDSRRGLQRSTQLSGRPDRGNEGEMHKDRAKSCNLM
B2: Rnd2, endogenous in embryonic (E14.5) mouse brain (protein, UniProt Q9QYM5 1-227)
chain: B1 chain

Columns and labels:
[1] = target: T1, EGFP-Bacurd2 fusion protein (murine); assay: co-IP; epitope-tagged constructs in transiently transfected HEK293T cells
[2] = target: T2, Bacurd2(Δ1-109), N-terminal truncation mutant (murine); assay: co-IP; epitope-tagged proteins in heterologous cells; reciprocal co-immunoprecipitation
[3] = target: T3, Bacurd2(Δ221-316), C-terminal truncation mutant (murine); assay: as above
[4] = target: T4, Bacurd2, endogenous in embryonic (E14.5) mouse brain (mouse (endogenous in E14.5 brain)); assay: co-IP; E14.5 mouse brain lysate (20 mM Tris pH 7.5, 150 mM NaCl, 1% IGEPAL, 0.1% SDS), mouse anti-Bacurd2 antibody overnight at 4°C, protein A sepharose, immunoblot for Rnd2

Binder	binding [1]	binding [2]	binding [3]	binding [4]
B1	binds	binds	no binding	–
B2	–	–	–	binds
